Assay results: patent US10195287B2 (Chemical & Biopharmaceutical Laboratories of Patras S.A., priority 2013, dated 2019)

Key:
[1] = general procedure: peptide synthesis; H-Lys(MMT resin)-OTrt; DIC/HOBt; HOSu/EDAC for fragment condensation; conditions: whole synthesis, scale 1.0 mmol
[2] = general procedure: peptide synthesis; 4-methyl-benzhydryl resin; DIC/HOBt; HOSu/EDAC for fragment condensation; conditions: whole synthesis
[3] = general procedure: peptide synthesis; H-Arg(Pbf)-O-CTC resin; DIC/HOBt; HOSu/EDAC for fragment condensation; conditions: whole synthesis, scale 1.0 mmol
[4] = general procedure: peptide synthesis; H-Gly-O-CTC resin; DIC/HOBt; HOSu/EDAC for fragment condensation; conditions: whole synthesis, scale 1.0 mmol

Selectively at the Lys^29 Side Chain Deprotected des-Thr^30 Human Insulin of Structure 12
crude mass [1]: 4.93 g
crude yield [1]: 94.1%

Single Chain Insulin Glu(A21), des Thr(B30) where the Insulin Chains are Connected Through the Side Chains of Glu(A21) and Lys(B29) and the Oligoethylen Glycol Modifier
isolated mass [2]: 82.4 mg
isolated yield ([2]; scale of the general procedure 1.0 mmol): 14.29%

Selectively at the Lys^29 Deprotected B(Arg31), B(Arg32) Human Insulin B Chain of Structure 8
crude mass [3]: 5.61 g
crude yield [3]: 90.2%

Partially Protected and Carboxyl Group Activated Insulin Gly(A21)-Chain of Structure 6
crude mass [4]: 3.04 g
crude yield [4]: 90.0%
